Data reported in patent publication US20030166232A1 (LUDWIG INSTITUTE FOR CANCER RESEARCH, published 2003).
Results are given in words; binding and its absence hold for the method and conditions named. In cells and extracts the contact can be indirect. Some binding calls cover weakened binding; strength is not graded here. Where a sequence is shown, tags or fusion partners need not be part of it. One block for each binder: values may come before it.

How the values were obtained:
[1] = target: T1, PARG (PTPL1 Associated RhoGAP), the 150 kDa component from PC-3 cell lysate (human) (UniProt Q52LW3); experiment: GST pull-down / peptide-bead binding, told in the description
T1 sequence: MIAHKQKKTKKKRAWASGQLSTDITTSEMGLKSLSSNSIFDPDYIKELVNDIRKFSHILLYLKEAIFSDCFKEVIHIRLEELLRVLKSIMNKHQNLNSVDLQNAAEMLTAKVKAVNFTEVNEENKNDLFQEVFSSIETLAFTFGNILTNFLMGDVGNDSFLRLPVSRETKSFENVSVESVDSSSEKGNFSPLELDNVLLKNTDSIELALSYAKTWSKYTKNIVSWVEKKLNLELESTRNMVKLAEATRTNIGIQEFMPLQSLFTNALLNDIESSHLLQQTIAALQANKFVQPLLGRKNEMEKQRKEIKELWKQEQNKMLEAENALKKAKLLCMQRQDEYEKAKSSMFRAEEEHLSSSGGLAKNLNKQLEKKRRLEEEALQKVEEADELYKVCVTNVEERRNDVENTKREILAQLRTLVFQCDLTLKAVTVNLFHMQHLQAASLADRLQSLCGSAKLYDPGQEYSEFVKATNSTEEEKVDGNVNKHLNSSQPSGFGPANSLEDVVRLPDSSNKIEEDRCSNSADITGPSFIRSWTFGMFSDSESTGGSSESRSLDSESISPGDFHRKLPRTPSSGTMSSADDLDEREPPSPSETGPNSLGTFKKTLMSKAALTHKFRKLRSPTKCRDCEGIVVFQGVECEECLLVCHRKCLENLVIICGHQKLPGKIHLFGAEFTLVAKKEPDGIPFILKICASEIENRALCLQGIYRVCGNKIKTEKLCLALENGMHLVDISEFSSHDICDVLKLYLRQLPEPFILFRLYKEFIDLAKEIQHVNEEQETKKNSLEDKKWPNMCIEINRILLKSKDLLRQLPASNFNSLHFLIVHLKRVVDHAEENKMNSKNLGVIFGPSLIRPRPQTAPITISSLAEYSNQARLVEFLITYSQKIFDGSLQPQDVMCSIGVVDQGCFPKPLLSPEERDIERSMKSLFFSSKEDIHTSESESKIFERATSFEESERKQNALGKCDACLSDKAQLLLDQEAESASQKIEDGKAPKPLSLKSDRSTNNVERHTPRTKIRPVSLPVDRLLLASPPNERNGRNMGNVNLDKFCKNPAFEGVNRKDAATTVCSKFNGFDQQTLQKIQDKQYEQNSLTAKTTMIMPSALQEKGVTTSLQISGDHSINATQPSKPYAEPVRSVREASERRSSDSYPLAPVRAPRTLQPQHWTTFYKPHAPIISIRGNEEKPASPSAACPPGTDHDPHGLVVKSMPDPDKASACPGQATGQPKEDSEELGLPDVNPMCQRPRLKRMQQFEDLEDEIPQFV

[2] = target: T1, PARG (PTPL1 Associated RhoGAP), the 150 kDa component from PC-3 cell lysate (human); experiment: GST pull-down from PC-3 cell lysate (restated in Example 8)
[3] = target: T1, PARG (PTPL1 Associated RhoGAP), the 150 kDa component from PC-3 cell lysate (human); experiment: GST pull-down from 35S-labelled PC-3 cell lysate, SDS-gel, fluorography

binding [1]: binds
binding [2]: binds
binding [3]: binds
B1: GST-PDZ 4 (glutathione S-transferase fused to PTPL1 residues 1762-1864) (protein, not shown: a dimerising Fc or GST)
chain: FELEVELLITLIKSEKASLGFTVTKGNQRIGCYVHDVIQDPAKSDGRLKPGDRLIKVNDTDVTNMTHTDAVNLLRAASKTVRLVIGRVLELPRIPMLPHLLPD

binding [3]: binds
B2: GST-PDZ 4-5 (glutathione S-transferase fused to PTPL1 residues 1762-1960) (protein, not shown: a dimerising Fc or GST)
chain: FELEVELLITLIKSEKASLGFTVTKGNQRIGCYVHDVIQDPAKSDGRLKPGDRLIKVNDTDVTNMTHTDAVNLLRAASKTVRLVIGRVLELPRIPMLPHLLPDITLTCNKEELGFSLCGGHDSLYQVVYISDINPRSVAAIEGNLQLLDVIHYVNGVSTQGMTLEEVNRALDMSLPSLVLKATRNDLPVVPSSKRSAVS
